# From US20110152166A1, “METHOD OF MODULATION OF PROTEIN PHOSPHORYLATION-DEPENDENT CONFORMATIONAL TRANSITIONS WITH LOW MOLECULAR WEIGHT COMPOUNDS” (priority 2006, published 2011)
# Protein sequences, listed by entry. Tags and fused reporters are not part of them. Residues count along the entry.
# UniProt P67999, 24-387: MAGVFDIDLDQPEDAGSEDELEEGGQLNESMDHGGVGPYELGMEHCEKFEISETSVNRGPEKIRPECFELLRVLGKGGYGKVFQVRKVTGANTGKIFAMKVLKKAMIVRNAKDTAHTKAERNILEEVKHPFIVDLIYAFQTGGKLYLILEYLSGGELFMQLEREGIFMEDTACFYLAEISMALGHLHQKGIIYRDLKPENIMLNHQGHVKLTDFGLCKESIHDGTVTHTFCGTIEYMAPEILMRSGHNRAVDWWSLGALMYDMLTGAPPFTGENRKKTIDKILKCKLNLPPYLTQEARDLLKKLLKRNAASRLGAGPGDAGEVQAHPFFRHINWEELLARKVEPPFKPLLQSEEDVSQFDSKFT
# At least one peptide structure holds a part that was inferred or is arguable (an end, a ring closure or a residue). Square brackets hold non-standard residues; d marks the D form. Peptide text beside a SMILES is read from it. pT = C[C@@H](OP(=O)(O)O)[C@H](N)C(=O)O; pS = N[C@@H](COP(=O)(O)O)C(=O)O
# What was measured:
# [1] = target: T1, Thr221-phosphorylated S6K11-364 (Rattus norvegicus, UniProt P67999); test: S6K1 in vitro reconstitution kinase assay with tail peptides; type: biochemical; details: FIG. 13A
# T1 construct: Purified HA-S6K1-364 was incubated with synthetic S6K1 (rat) tail peptides; made in house; host or cells: COS7, co-transfected with myc-PDK1; anti-HA immunoprecipitate
# From the text: We established an in vitro reconstitution assay that could test a direct activation of the AGC kinase domain by the tail phosphate and characterize its cooperation with the HM and activation loop phosphates. The deletion mutant S6K11-364, which contains the kinase domain, but lacks the region of the tail containing the tail site and the HM as well as the C-terminal autoinhibitory domain, was expressed and purified from COS7 cells, either non-phosphorylated or phosphorylated at T221 in the activation loop, achieved by co-expression with PDK1. Purified S6K11-364 was then incubated with synthetic peptides of the S6K1 tail (residues 366-395: QTPVDS^371PDDSTLSESANQVFLGFT^389YVAPSV), which were either non-phosphorylated (S371/T389), phosphorylated at the tail site (pS371/T389), phosphorylated in the HM (S371/pT389) or phosphorylated at both sites (pS371/pT389). Subsequently, the kinase activity of S6K11-364 was determined.
# Kinase assays for PKB, RSK, S6K, MSK were done as described previously (Frodin et al., 2002). […] After washing with 150 mM orthophosphoric acid, [^32P]phosphate incorporated into peptide substrate was quantified in an FLA-3000 apparatus (Fujifilm). […]
# PDK150-360 = target: T2, PDK150-360 (Homo sapiens, UniProt O15530); test: Surface plasmon resonance, PDK1 binding to S6K tail peptides
# T2 construct: the catalytic domain of PDK1 comprising residues 50-360
# T2 sequence (O15530 50-360): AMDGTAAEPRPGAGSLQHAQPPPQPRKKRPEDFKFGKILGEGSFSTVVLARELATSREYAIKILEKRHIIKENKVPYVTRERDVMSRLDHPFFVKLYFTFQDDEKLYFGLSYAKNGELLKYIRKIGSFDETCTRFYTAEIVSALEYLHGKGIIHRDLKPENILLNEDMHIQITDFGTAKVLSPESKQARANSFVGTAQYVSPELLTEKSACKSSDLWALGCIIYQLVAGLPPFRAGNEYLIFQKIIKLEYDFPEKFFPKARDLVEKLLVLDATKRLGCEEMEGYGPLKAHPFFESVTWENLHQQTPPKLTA
# Description: FIG. 21 (A) Aliquots of S6K1 protein from bar 1, 2, 5 and 6 in FIG. 5B were subjected to immunoblotting with phosphorylation site specific Ab against the activation loop or anti-HA Ab. (B) The kinase activity of PKB<143-479, prephosphorylated by PDK1 in the activation loop, was determined in the presence of increasing concentrations of synthetic PRK2 tail peptides encompassing the HM, which were either nonphosphorylated (PIFtide) or phosphorylated at the tail site (pT958-PIFtide). […] (C) The kinase activity of purified PDK1 was determined in the presence of increasing concentrations of synthetic S6K tail peptide (residues 366-395) that was either phosphorylated at T389 (S371/pT389) or phosphorylated at both 5389 and 5371 (pS371/pT389). Kinase activity is expressed as percent, and data are means+/−SD of 3 independent experiments. (D) Synthetic S371/pT389 S6K tail peptide and pS371/pT389 S6K tail peptide were biotinylated and used to coat streptavidin Sensor Chips. PDK150-360 was injected at different concentrations (0.05-5.4 mM) onto the peptide coated chips. In the inserts, the kinetic constants were obtained by fitting the data to a hyperbola using kaleidagraph software. Representative results from one of several experiments are shown.
# BiaCore analysis was performed as described in Biondi et al. (2000). […]
structure (smiles),measurement,setting,value
CC(C)C[C@H](NC(=O)[C@H](Cc1ccccc1)NC(=O)[C@@H](NC(=O)[C@H](CCC(N)=O)NC(=O)[C@H](CC(N)=O)NC(=O)[C@H](C)NC(=O)[C@H](CO)NC(=O)[C@H](CCC(=O)O)NC(=O)[C@H](CO)NC(=O)[C@H](CC(C)C)NC(=O)[C@@H](NC(=O)[C@H](CO)NC(=O)[C@H](CC(=O)O)NC(=O)[C@H](CC(=O)O)NC(=O)[C@@H]1CCCN1C(=O)[C@H](COP(=O)(O)O)NC(=O)[C@H](CC(=O)O)NC(=O)[C@@H](NC(=O)[C@@H]1CCCN1C(=O)[C@@H](NC(=O)[C@@H](N)CCC(N)=O)[C@@H](C)O)C(C)C)[C@@H](C)O)C(C)C)C(=O)NCC(=O)N[C@@H](Cc1ccccc1)C(=O)N[C@H](C(=O)N[C@@H](Cc1ccc(O)cc1)C(=O)N[C@H](C(=O)N[C@@H](C)C(=O)N1CCC[C@H]1C(=O)N[C@@H](CO)C(=O)N[C@H](C(=O)N[C@@H](CCC(=O)O)C(=O)N[C@@H](CCC(=O)O)C(=O)N[C@@H](CCCCN)C(=O)O)C(C)C)C(C)C)[C@@H](C)OP(=O)(O)O [pS371/pT389] (H-QTPVD[pS]PDDSTLSESANQVFLGF[pT]YVAPSVEEK-OH; N-terminus and C-terminus assumed),AC50,[1],~60 µM
same,binding of PDK1 to tail peptide (in words),PDK150-360,bound equally well
